Assay results: publication PMC4559445
These are yes or no findings as the source states them, for the method shown. For some of these results: Binding calls can cover weak binding; strength is not graded here. For some of these results: Sequences can lack the tags named with a protein.

The chains behind the UniProt entries cited, without tags or fusion partners. Where a name states a change or a piece, a line headed by the entry shows the natural chain unless it says otherwise.
UniProt C1GXS6: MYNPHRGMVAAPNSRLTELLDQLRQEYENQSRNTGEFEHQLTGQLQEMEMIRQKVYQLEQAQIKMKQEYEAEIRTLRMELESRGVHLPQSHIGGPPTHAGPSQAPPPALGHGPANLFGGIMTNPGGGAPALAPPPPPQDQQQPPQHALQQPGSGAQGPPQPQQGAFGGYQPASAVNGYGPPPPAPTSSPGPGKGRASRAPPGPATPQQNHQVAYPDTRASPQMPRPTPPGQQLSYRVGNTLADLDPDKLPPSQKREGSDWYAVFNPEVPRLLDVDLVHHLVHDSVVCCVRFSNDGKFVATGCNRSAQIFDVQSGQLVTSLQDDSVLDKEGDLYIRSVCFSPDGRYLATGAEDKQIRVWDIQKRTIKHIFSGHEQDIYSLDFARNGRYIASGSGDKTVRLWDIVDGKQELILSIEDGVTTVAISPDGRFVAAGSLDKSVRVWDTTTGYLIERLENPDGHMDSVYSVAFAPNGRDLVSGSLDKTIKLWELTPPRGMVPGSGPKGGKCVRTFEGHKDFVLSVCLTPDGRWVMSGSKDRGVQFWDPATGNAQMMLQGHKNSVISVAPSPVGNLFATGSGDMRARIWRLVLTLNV

Columns and labels:
[1] = target: PbTpk2^(1-225)-GST (P. brasiliensis) (UniProt C1GNL3); assay: pull-down; GST fusion protein immobilised on GST beads as bait, His-tagged protein as prey; 20 mM HEPES pH 7.9, 600 mM NaCl, 0.05% Tween 20, 5% glycerol, 1 mM DTT; overnight at 4°C, 9 washes; Western blot with anti-hexahistidine antibody; both purified
[2] = target: PbTpk2^(1-270) (two-hybrid fusion) (P. brasiliensis) (UniProt C1GNL3); assay: two-hybrid; Matchmaker GAL4 Two-Hybrid System 3; yeast AH109 co-transformed with pGBKT7 bait and pGADT7 prey; growth on SD-Ade/-His/-Leu/-Trp plates and blue colonies on alpha-X-gal; genes swapped between the vectors, positive only if positive in both
[3] = target: PbTpk2^(265-583) (two-hybrid fusion) (P. brasiliensis) (UniProt C1GNL3); assay: as above
[4] = target: PbGpa1, G-alpha protein of P. brasiliensis (two-hybrid fusion) (P. brasiliensis); assay: two-hybrid
[5] = target: PbGpb1, G-beta protein of P. brasiliensis (two-hybrid fusion) (P. brasiliensis); assay: two-hybrid
[6] = target: PbTupA, transcriptional co-regulator of P. brasiliensis (two-hybrid fusion) (P. brasiliensis); assay: two-hybrid
[7] = target: PbGpa2, G-alpha protein of P. brasiliensis (two-hybrid fusion) (P. brasiliensis); assay: two-hybrid
[8] = target: PbGpa3, G-alpha protein of P. brasiliensis (two-hybrid fusion) (P. brasiliensis); assay: two-hybrid

Molecule | binding [4] | binding [5] | further results
PbTupA-His6 (from UniProt C1GXS6) | – | – | binding [1]: binds
PbGpg1, G-gamma protein of P. brasiliensis (two-hybrid fusion) (from UniProt A7L9Y3) | – | – | binding [2]: binds; binding [3]: binds
ScCyr1^(350-480), G-alpha association domain of S. cerevisiae adenylate cyclase (two-hybrid fusion) (domain or fragment, UniProt P08678 350-480) TPEYNENIPENSNSDNKREATTPTIETPISCKPSLFRLDTNLEDVTDITKTVPPTAVNSTLNSTHGTETASPKTVIMPEGPRKSVSMADLSVAAAAPNGEFTSTSNDRSQWVAPQSWDVETKRKKTKPKGR | no binding | no binding | –
ScCyr1^(1-365), N-terminal domain of S. cerevisiae adenylate cyclase (two-hybrid fusion) (domain or fragment, UniProt P08678 1-365) MSSKPDTGSEISGPQRQEEQEQQIEQSSPTEANDRSIHDEVPKVKKRHEQNSGHKSRRNSAYSYYSPRSLSMTKSRESITPNGMDDVSISNVEHPRPTEPKIKRGPYLLKKTLSSLSMTSANSTHDDNKDHGYALNSSKTHNYTSTHNHHDGHHDHHHVQFFPNRKPSLAETLFKRFSGSNSHDGNKSGKESKVANLSLSTVNPAPANRKPSKDSTLSNHLADNVPSTLRRKVSSLVRGSSVHDINNGIADKQIRPKAVAQSENTLHSSDVPNSKRSHRKSFLLGSTSSSSSRRGSNVSSMTNSDSASMATSGSHVLQHNVSNVSPTTKSKDSVNSESADHTNNKSEKVTPEYNENIPENSNSDN | no binding | no binding | –
ScTpk2, PKA catalytic subunit of S. cerevisiae (two-hybrid fusion) (enzyme, UniProt P06245 1-380) MEFVAERAQPVGQTIQQQNVNTYGQGVLQPHHDLQQRQQQQQQRQHQQLLTSQLPQKSLVSKGKYTLHDFQIMRTLGTGSFGRVHLVRSVHNGRYYAIKVLKKQQVVKMKQVEHTNDERRMLKLVEHPFLIRMWGTFQDARNIFMVMDYIEGGELFSLLRKSQRFPNPVAKFYAAEVILALEYLHAHNIIYRDLKPENILLDRNGHIKITDFGFAKEVQTVTWTLCGTPDYIAPEVITTKPYNKSVDWWSLGVLIYEMLAGYTPFYDTTPMKTYEKILQGKVVYPPYFHPDVVDLLSKLITADLTRRIGNLQSGSRDIKAHPWFSEVVWERLLAKDIETPYEPPITSGIGDTSLFDQYPEEQLDYGIQGDDPYAEYFQDF | no binding | no binding | binding [6]: no binding
ScCyr1^(600-800), RAS-association domain of S. cerevisiae adenylate cyclase (two-hybrid fusion) (domain or fragment, UniProt P08678 600-800) SSYTNAYMEANREQDNKTPILNKTKSYTKKFTSSSVNMNSPDGAQSSGLLLQDEKDDEVECQLEHYYKDFSDLDPKRHYAIRIFNTDDTFTTLSCTPATTVEEIIPALKRKFNITAQGNFQISLKVGKLSKILRPTSKPILIERKLLLLNGYRKSDPLHIMGIEDLSFVFKFLFHPVTPSHFTPEQEQRIMRSEFVHVDLR | no binding | no binding | –
ScGpr1^(679-961), ScGpa2 association domain of the GPCR Gpr1 of S. cerevisiae (two-hybrid fusion) (domain or fragment, UniProt Q12361 679-961) KEKPWNYSWAKTESKYLIEKYILKGELGEKEILKFCHSNWGKRGWYYRGKWKKRKCWKYSTNPLKRILWFVERFFKQLFELKLHFSFYDNCDDFEYWENYYSAKDSNDNKRTESDETKTNSSDRSLPSNSLELQAMLNNITAEEVEVPLFWRIIHHIPMLGGIDLDELNRLLKIRYNNDHFSLPGLKFALNQNKSHDKHQDVSTNSMVKSSFFSSNIVTNDDENSIEEDKNLRYSDASASENYLVKPTIPGTTPDPIIEAQNDNDSSDSSGIDLIAFLRNGPL | no binding | no binding | binding [7]: no binding; binding [8]: no binding
